Experimental data from US12686971B2, “Method of controlling enzymatic activities and tools related thereto” (KEMIRA OYJ, priority 2020, dated 2026).

Tests used:
[1] = pH, redox and conductivity of pulp suspension after incubation; conditions: pasteurized 1 h +80° C., 50 mg/l monochloramine then 10 mg/l daily, 4 d at +40° C., n = 6
[2] = Properties of handsheets prepared from treated pulp
[3] = Example 5, treated compared to non-treated
[4] = handsheet from treated pulp, Example 5 (monochloramine, 4 d)

In the case of NCl [MCA, monochloramine], the “Redox, Average” value [1] is reported as 94 mV, the “pH, Average” value [1] is reported as 6.3 and the “SCT higher in the treated sample” value [2, 3] is reported as “about 3.5%”. For the same molecule, the “ash content higher in the treated sample” value [2, 3] was “about 8.8%”, the “tear strength higher in the treated sample” value [2, 3] was “more than 9%” and the “tensile strength better in the treated sample” value [2, 3] was “about 12%”. The Ash content [2, 4] was 4.35%, the SCT index [2, 4] was 17.16 Nm/g and the Tear index [2, 4] was 6.84 Nm^2/kg. The Tensile index [2, 4] was 30.92 Nm/g.
